PubChem BioAssay AID504786 | Drosophila RNAi Screening Center – 2011
Assay: 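Knock-downs reducing HIF reporter induction by the iron chelator DFO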 (primary screen). Cell system: Drosophila S2 cells with a stable HIF luciferase reporter. Reagents: long dsRNA against Drosophila genes, about 0.2 µg dsRNA per well of a 384-well plate. Timing: three days of knock-down, then 20 h of DFO before reading. Conditions: desferrioxamine (DFO) at 100 µM, an iron chelator that mimics hypoxia, for 20 h. Detection: 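Firefly luciferase driven by the mouse ldh-a hypoxia-response element, measured after 20 h of 100 µM DFO; z-scores per plate, higher means more signal lost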. Reading the numbers: z-score: higher = stronger loss of HIF reporter signal.
In all, the deposit lists about 21,000 reagents; shown is a random part of those with a known target gene and a result. 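Primary screen; positive scores mean lost reporter signal, so the sign may be inverted from the usual convention.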 Reagents against one gene are numbered here. Not all columns of the deposit are shown.

Depletion of KFase (Kynurenine formamidase) came out at: z-score, replicate 1 = -0.2.
Silencing of CG17650 gave: z-score, replicate 1 = -0.3.
Against nAChRalpha5 (nicotinic Acetylcholine Receptor alpha5) #1, the entry reads z-score, replicate 1 = 0.3.
nAChRalpha5 (nicotinic Acetylcholine Receptor alpha5) #2 scored z-score, replicate 1 = -0.3.
Against nAChRalpha5 (nicotinic Acetylcholine Receptor alpha5) #3, the values are z-score, replicate 1 = -0.2.
Knock-down of CG8323 gave: z-score, replicate 1 = 0.1.
For pic (piccolo), the entry reads z-score, replicate 1 = 0.9.
With knock-down of Osi19 (Osiris 19) the results were z-score, replicate 1 = -0.3.
For CG12926, the values are z-score, replicate 1 = -0.4.
For bbg (big bang) #1 the deposit lists z-score, replicate 1 = -0.4.
Knock-down of bbg (big bang) #2 came out at: z-score, replicate 1 = -0.2.
bsd (back seat driver) scored z-score, replicate 1 = 1.
For CG11722, the entry reads z-score, replicate 1 = -0.4.
After knock-down of Bx (Beadex), the screen gave z-score, replicate 1 = 2.9.
Knock-down of Trmt112 (tRNA methyltransferase subunit 11-2) resulted in: z-score, replicate 1 = -0.1.
Against RhoGDI, the values are z-score, replicate 1 = -0.3.
frj (farjavit) scored z-score, replicate 1 = -0.3.
ox (oxen) scored z-score, replicate 1 = 0.9.
For Mitf #1 the deposit lists z-score, replicate 1 = -0.3.
Mitf #2 scored z-score, replicate 1 = -0.2.
Gr59c (Gustatory receptor 59c) scored z-score, replicate 1 = -0.4.
For Lamtor3 (Late endosomal/lysosomal adaptor, MAPK and MTOR activator 3) the deposit lists z-score, replicate 1 = 0.2.
Depletion of CG2926 gave: z-score, replicate 1 = -0.3.
Silencing of sob gave: z-score, replicate 1 = -0.1.
repo (reversed polarity) showed z-score, replicate 1 = 0.1.
For Lhr (Lethal hybrid rescue), the values are z-score, replicate 1 = -0.1.
For CG14718, the entry reads z-score, replicate 1 = -0.4.
For Oli (Olig family), the values are z-score, replicate 1 = -0.3.
Depletion of dmrt93B (doublesex-Mab related 93B) resulted in: z-score, replicate 1 = -0.7.
After knock-down of CG8908 the results were z-score, replicate 1 = -0.3.
After knock-down of Nep2 (Neprilysin 2), the screen gave z-score, replicate 1 = -0.2.
CG10947 gave z-score, replicate 1 = -0.2.
Against CG6665 the deposit lists z-score, replicate 1 = -0.3.
CG14391 gave z-score, replicate 1 = -0.3.
For Pect (Phosphoethanolamine cytidylyltransferase) #1, the values are z-score, replicate 1 = -0.4.
Depletion of Pect (Phosphoethanolamine cytidylyltransferase) #2 came out at: z-score, replicate 1 = -0.2.
CG12479 scored z-score, replicate 1 = -0.2.
Against CG31805, the values are z-score, replicate 1 = -0.5.
With knock-down of COX1 (retired record), the screen gave z-score, replicate 1 = -0.3.
Against CG4983 the deposit lists z-score, replicate 1 = -0.4.
Knock-down of CG13511 resulted in: z-score, replicate 1 = -0.4.
Knock-down of Ts (Thymidylate synthase) resulted in: z-score, replicate 1 = -0.3.
After knock-down of Cpsf6 (Cleavage and polyadenylation specific factor 6), the screen gave z-score, replicate 1 = 1.5.
Srrm234 (Serine-arginine repetitive matrix 2/3/4) #1 gave z-score, replicate 1 = 0.1.
For Srrm234 (Serine-arginine repetitive matrix 2/3/4) #2, the entry reads z-score, replicate 1 = -0.3.
Mt2 (Methyltransferase 2) gave z-score, replicate 1 = 1.1.
CG5819 gave z-score, replicate 1 = -0.2.
After knock-down of CG10055, the record shows z-score, replicate 1 = 0.
Silencing of CG33631 gave: z-score, replicate 1 = -0.2.
With knock-down of CG12279 the results were z-score, replicate 1 = -0.2.
Depletion of Cpr50Ca (Cuticular protein 50Ca) #1 gave: z-score, replicate 1 = -0.1.
Cpr50Ca (Cuticular protein 50Ca) #2 gave z-score, replicate 1 = -0.2.
With knock-down of Cpr50Ca (Cuticular protein 50Ca) #3 the results were z-score, replicate 1 = 0.
